Values of other authors in US6558650B1, “Enhancement of cellular gallium uptake” (Oregon Health and Science University, priority 1998, dated 2003).

Settings: cited from earlier work

## COC(=O)C1=C(C)NC(C)=C(C(=O)OC)C1c1ccccc1[N+](=O)[O-] [Nifedipine, dimethyl 1,4-dihydro-2,6-dimethyl-4-(2-nitrophenyl)-3,5-pyridinedicarboxylate]
  oral absorption: well-absorbed orally
